The values below come from the supplement of paper PMC9226226.

The subject of the assay is Werner syndrome hMSCs (WRN-/-). Nature of the assay: relative cell density (fold change vs vehicle control); higher = more proliferation (geroprotective). To be noted: concentration (umol/L): 1, 6 days.

Several values for one entry are separate records, joined by “and”; a condition that tells them apart may be missing. Equal values may be shown once. The list shows a part of the results. Some well-known active drugs show little effect in this data set, so a weak value is uncertain.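 Prematurely aging human mesenchymal stem cells without the Werner syndrome gene were monitored by automated live-cell imaging over three biological repeats. The top twenty drugs for increasing growth versus vehicle moved forward; no fixed cutoff was specified.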

For the setting “vehicle: DMSO”, `Cc1cn[nH]c1` had a relative cell density of 1.06.

With `OCCN1CCN(CC/C=C2/c3ccccc3Sc3ccc(C(F)(F)F)cc32)CC1`, the relative cell density (vehicle: DMSO) stood at 1.03.

Where the note is “vehicle: DMSO”, `C[C@@H](O)[C@H]1C(=O)N2C(C(=O)O)=C([C@H]3CCCO3)S[C@H]12` came in with a relative cell density of 0.96.

In the case of `N=C1CCCN1Cc1[nH]c(=O)[nH]c(=O)c1Cl`, where the note is “vehicle: DMSO”, the relative cell density is 0.974.

Compound `Nc1[nH]cnc2ncnc1-2` yielded a relative cell density (vehicle: DMSO) of 1.14.

Take `C[C@@H](NCCCc1cccc(C(F)(F)F)c1)c1cccc2ccccc12`: the relative cell density (vehicle: DMSO) came to 0.911.

Where the note is “vehicle: DMSO”, `CC(=O)Nc1cccc(-n2c(=O)n(C3CC3)c(=O)c3c(Nc4ccc(I)cc4F)n(C)c(=O)c(C)c32)c1` had a relative cell density of 0.45.

As to `NCCc1c[nH]cn1`, the relative cell density was 1.31 and 1.44 (vehicle: DMSO); 1.46 (vehicle: Water).

In turn, `OC(Cn1cncn1)(Cn1cncn1)c1ccc(F)cc1F` registered a relative cell density (vehicle: DMSO) of 1.05.

Compound `CC(C)c1c(C(=O)Nc2ccccc2)c(-c2ccccc2)c(-c2ccc(F)cc2)n1CC[C@@H](O)C[C@@H](O)CC(=O)O` gave a relative cell density (vehicle: DMSO) of 0.307.

In turn, `Cc1ncc(C[n+]2csc(CCO)c2C)c(N)n1` showed a relative cell density (vehicle: Water) of 1.05.

Regarding `CCN[C@H]1CN(CCCOC)S(=O)(=O)c2sc(S(N)(=O)=O)cc21`, the relative cell density (vehicle: DMSO) is 1.46.

Take `NS(=O)(=O)c1cc(C2(O)NC(=O)c3ccccc32)ccc1Cl` (stereo not given): the relative cell density (vehicle: DMSO) came to 1.4.

As for `O=C(O)CCCCCCCC(=O)O`, the relative cell density (vehicle: DMSO) came to 1.31.

Consider `CC(=O)OCC(=O)[C@@]1(O)CC[C@H]2[C@@H]3CCC4=CC(=O)CC[C@]4(C)[C@@]3(F)[C@@H](O)C[C@@]21C`, for which the relative cell density (vehicle: DMSO) came out at 1.09.

On to `FC(F)(F)C(Cl)Br` (stereo not given), for which the relative cell density (vehicle: DMSO) worked out at 0.925.

Consider `Cc1ccc(C(=O)c2ccc(CC(=O)O)n2C)cc1`, for which the relative cell density (vehicle: DMSO) came to 0.742.

`O=C(O)c1cc(-c2ccccc2)nc2ccccc12` displayed a relative cell density (vehicle: DMSO) of 0.675.

As to `CC(=O)O[C@]1(C(C)=O)CC[C@H]2[C@@H]3C[C@H](C)C4=CC(=O)CC[C@]4(C)[C@H]3CC[C@@]21C`, the relative cell density (vehicle: DMSO) worked out at 1.09.

With `C[C@H]1CNCCCN1S(=O)(=O)c1cccc2cncc(F)c12`, the relative cell density (vehicle: DMSO) is 0.95.

In the case of `COc1cc2c(Oc3ccc4[nH]c(C)cc4c3F)ncnc2cc1OCCCN1CCCC1`, the relative cell density (vehicle: DMSO) was determined as 0.464.

For `CN(C)c1nc(N(C)C)nc(N(C)C)n1`, where the note is “vehicle: DMSO”, the relative cell density came to 0.846.

In the case of `CCn1c(=O)c(-c2cc[nH]n2)cc2c(C)nc(N)nc21`, the relative cell density (vehicle: DMSO) amounted to 0.753.

The compound `CNS(=O)(=O)C[C@H]1CC[C@H](N(C)c2[nH]cnc3nccc2-3)CC1` registered a relative cell density (vehicle: DMSO) of 1.09.

As for `COc1ccccc1OCC(O)CN1CCN(CC(=O)Nc2c(C)cccc2C)CC1` (stereo not given), the relative cell density (vehicle: DMSO) was 1.01 and 1.34.

Turning to `COc1cc([C@@H]2c3cc4c(cc3[C@@H](O[C@@H]3O[C@@H]5CO[C@@H](C)O[C@H]5[C@H](O)[C@H]3O)[C@H]3COC(=O)[C@H]23)OCO4)cc(OC)c1O`, where the note is “vehicle: DMSO”, the relative cell density is 0.258.

In turn, `NC(=O)C(c1ccccc1)(c1ccccc1)[C@@H]1CCN(CCc2ccc3c(c2)CCO3)C1` gave a relative cell density (vehicle: DMSO) of 1.15.

In the case of `CCCNCC(O)COc1ccccc1C(=O)CCc1ccccc1` (stereo not given), the relative cell density (vehicle: DMSO) was 1.26.

As for `Cn1c(=O)cc(N2CCCC(N)C2)n(Cc2ccccc2C#N)c1=O` (stereo not given), the relative cell density (vehicle: DMSO) is 1.05.
